Data published in article PMC6990902.
These are yes or no findings as the source states them, for the method shown. Binding seen in cells or lysates may run through a third protein. Some entries that bind do so weakly or less than the wild type.

Protein sequences, listed by entry. Tags and fused reporters are not part of them.
UniProt P23677: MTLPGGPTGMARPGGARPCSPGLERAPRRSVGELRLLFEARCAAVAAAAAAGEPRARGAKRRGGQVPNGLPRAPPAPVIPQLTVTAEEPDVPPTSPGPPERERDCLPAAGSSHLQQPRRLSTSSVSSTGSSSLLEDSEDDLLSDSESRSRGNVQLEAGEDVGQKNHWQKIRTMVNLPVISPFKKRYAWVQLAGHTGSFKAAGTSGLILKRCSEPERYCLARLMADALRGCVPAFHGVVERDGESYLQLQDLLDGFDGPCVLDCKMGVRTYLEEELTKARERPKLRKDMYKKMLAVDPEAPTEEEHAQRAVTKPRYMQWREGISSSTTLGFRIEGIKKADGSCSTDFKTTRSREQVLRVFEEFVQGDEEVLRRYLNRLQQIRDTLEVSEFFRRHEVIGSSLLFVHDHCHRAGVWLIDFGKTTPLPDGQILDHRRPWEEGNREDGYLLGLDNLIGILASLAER

T1: Drebrin 1 (DBN1) (human (endogenous in H1299)) (UniProt Q16643)
T1 sequence: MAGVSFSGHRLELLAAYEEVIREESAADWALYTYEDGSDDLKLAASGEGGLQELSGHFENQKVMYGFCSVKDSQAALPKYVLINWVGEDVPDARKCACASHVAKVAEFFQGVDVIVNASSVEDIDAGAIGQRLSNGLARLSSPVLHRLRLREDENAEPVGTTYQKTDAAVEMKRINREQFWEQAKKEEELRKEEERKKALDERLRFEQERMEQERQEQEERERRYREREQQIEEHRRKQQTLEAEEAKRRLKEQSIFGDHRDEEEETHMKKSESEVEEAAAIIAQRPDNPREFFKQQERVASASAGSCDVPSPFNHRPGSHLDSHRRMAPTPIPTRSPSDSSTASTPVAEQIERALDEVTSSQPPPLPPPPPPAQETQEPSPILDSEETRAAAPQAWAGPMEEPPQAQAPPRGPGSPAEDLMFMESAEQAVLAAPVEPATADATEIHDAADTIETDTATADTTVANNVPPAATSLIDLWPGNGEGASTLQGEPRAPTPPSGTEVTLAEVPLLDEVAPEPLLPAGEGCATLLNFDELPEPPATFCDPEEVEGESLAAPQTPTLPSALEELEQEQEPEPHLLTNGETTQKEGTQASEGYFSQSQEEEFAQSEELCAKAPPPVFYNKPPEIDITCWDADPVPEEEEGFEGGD


Columns and labels:
[1] = molecular target: T1, Drebrin 1 (DBN1) (human (endogenous in H1299)); assay: co-IP; endogenous proteins from total protein of H1299 cells (RIPA lysis buffer with protease inhibitors); Pierce co-immunoprecipitation kit; precipitated with anti-ITPKA or, in reverse, anti-DBN1 antibody; normal serum IgG as negative control; detected by western blot
[2] = molecular target: ITPKA (inositol 1,4,5-trisphosphate 3-kinase) (human (endogenous in H1299)) (UniProt P23677); assay: as above

| binding [1] | binding [2] | Molecule |
| --- | --- | --- |
| binds |  | ITPKA (inositol 1,4,5-trisphosphate 3-kinase) (from UniProt P23677 1-461) |
|  | binds | Drebrin 1 (DBN1) (protein, UniProt Q16643 1-649) MAGVSFSGHRLELLAAYEEVIREESAADWALYTYEDGSDDLKLAASGEGGLQELSGHFENQKVMYGFCSVKDSQAALPKYVLINWVGEDVPDARKCACASHVAKVAEFFQGVDVIVNASSVEDIDAGAIGQRLSNGLARLSSPVLHRLRLREDENAEPVGTTYQKTDAAVEMKRINREQFWEQAKKEEELRKEEERKKALDERLRFEQERMEQERQEQEERERRYREREQQIEEHRRKQQTLEAEEAKRRLKEQSIFGDHRDEEEETHMKKSESEVEEAAAIIAQRPDNPREFFKQQERVASASAGSCDVPSPFNHRPGSHLDSHRRMAPTPIPTRSPSDSSTASTPVAEQIERALDEVTSSQPPPLPPPPPPAQETQEPSPILDSEETRAAAPQAWAGPMEEPPQAQAPPRGPGSPAEDLMFMESAEQAVLAAPVEPATADATEIHDAADTIETDTATADTTVANNVPPAATSLIDLWPGNGEGASTLQGEPRAPTPPSGTEVTLAEVPLLDEVAPEPLLPAGEGCATLLNFDELPEPPATFCDPEEVEGESLAAPQTPTLPSALEELEQEQEPEPHLLTNGETTQKEGTQASEGYFSQSQEEEFAQSEELCAKAPPPVFYNKPPEIDITCWDADPVPEEEEGFEGGD |
